Source: US20110319338A1, “PEPTIDES THAT BIND EUKARYOTIC TRANSLATION INITIATION FACTOR 4E” (The Board of Regents of the University of Texas System, priority 2008, published 2011)
Not every detail of the peptide structures is certain; ends, links or a residue may be inferred. Square brackets hold non-standard residues; d marks the D form. Peptide text beside a SMILES is read from it. pGlu = O=C1CC[C@@H](C(=O)O)N1

How the values were obtained:
OVCAR-3 cells [1] = experiment: Peptide uptake by immunofluorescence (Texas Red-conjugated streptavidin); assay type: cell-based; conditions: biotinylated peptide 3 micromoles per liter, 16 hours
ES-2-DualLuc cells = experiment: Cell-based translation assay with bicistronic R-Luc/F-Luc reporter; conditions: peptide 6 hours, 0.3 to 10 micromoles per liter
Description: (§1) FIGS. 2A-2F. Inhibition of cap-dependent translation and cell growth by TAT-4EBP fusion peptides. (FIG. 2A) Representation of the pIRES-DualLuc bicistronic construct containing Renilla Luciferase (R-Luc) and firefly luciferase (F-Luc) genes. In (FIG. 2B), R-Luc and F-Luc activities were assayed in ES-2-DualLuc cells following treatment for 24 hours with rapamycin and for 3 hours with cycloheximide with the indicated concentrations of these drugs, and expressed relative to the respective luciferase activities in cells incubated without drug. Cell viability was not affected by rapamycin and cycloheximide under these conditions. In (FIG. 2C), R-Luc and F-Luc activities were assayed in ES-2-DualLuc cells following treatment for 6 hours with the indicated concentrations of peptides, and expressed relative to the respective luciferase activities in cells incubated without peptide. Shown are results of triplicate assays performed independently two times, and the statistical significance of differences in relative R-Luc and F-Luc activities in cells treated with peptide at a concentration of 10 micromoles per liter. (FIG. 2D) Viability of OVCAR-3 cells at 3 days after addition of the indicated concentrations of peptides, expressed relative to viability of cells incubated without peptide. Shown are results of triplicate assays performed in two independent experiments, and statistical significances of differences in viability of cells treated with TAT-4EBP1-WT vs. TAT-4EBP1-MT, and of cells treated with TAT-4EBP2-WT vs. TAT-4EBP2-MT at a concentration of 10 micromoles per liter. (FIG. 2E) OVCAR-3 cells at 3 days after peptide addition (10 micromoles per liter) viewed under phase-contrast microscopy. (FIG. 2F) Flow cytometric analysis of staining of terminal deoxynucleotidyl transferase-mediated dUTP nick end labeling (TUNEL) in OVCAR-3 cells at 3 days after peptide addition (10 micromoles per liter). Cells incubated for 3 days in the absence of peptide in medium with and without serum are included as controls.
FIGS. 3A-3H. Uptake, binding and inhibitory effects of [DLys6]GnRH-4EBP fusion peptides. (FIG. 3A) Sequences of [DLys6]GnRH, and wild-type and mutant 4EBP1 peptides fused to the agonist. (FIG. 3B) Western blot of GnRH-RI levels in OVCAR-3, ES-2, MDA-MB-231, BJ, HUVEC and SKOV3 cells. (FIG. 3C) Detection of biotinylated peptides in OVCAR-3 and SKOV3 by Texas Red-conjugated streptavidin at 16 hours after peptide addition (3 micromoles per liter). In (FIGS. 3D and 3E), biotinylated peptides were incubated with OVCAR-3 cell lysate as described in FIG. 1. In (FIG. 3D), peptide was pulled down using streptavidin-agarose. Precipitates (P) and supernatants (S) were analyzed by Western blot using eIF4E antibody. […]

OVCAR-3 cells [2] = experiment: Cell viability assay (crystal violet); assay type: cell-based; conditions: OVCAR-3, 3 days after peptide addition, 0.3 to 30 micromoles per liter
Description: as §1, with “Shown are results of triplicate assays performed in two independent experiments, and statistical significances of differences in viability of cells treated with TAT-4EBP1-WT vs. TAT-4EBP1-MT, and of cells treated with TAT-4EBP2-WT vs. TAT-4EBP2-MT at a concentration of 10 micromoles per liter. (FIG. 2E) OVCAR-3 cells at 3 days after peptide addition (10 micromoles per liter) viewed under phase-contrast microscopy. (FIG. 2F) Flow cytometric analysis of staining of terminal deoxynucleotidyl transferase-mediated dUTP nick end labeling (TUNEL) in OVCAR-3 cells at 3 days after peptide addition (10 micromoles per liter). Cells incubated for 3 days in the absence of peptide in medium with and without serum are included as controls.” left out
FIGS. 3A-3H. […] Precipitates (P) and supernatants (S) were analyzed by Western blot using eIF4E antibody. […]

ES-2 cells = experiment: Cell viability assay (crystal violet); assay type: cell-based; conditions: ES-2 (ovarian cancer, GnRH-RI-positive), 3 days
kidney cells (COS) = experiment: Cell viability assay (crystal violet); assay type: cell-based; conditions: do not express GnRH-RI, 3 days
parental SKOV3 cells = experiment: Cell viability assay (crystal violet); assay type: cell-based; conditions: parental SKOV3, GnRH-RI-negative, 3 days
SKOV3+GnRH-RI cells = experiment: Cell viability assay (crystal violet); assay type: cell-based; conditions: SKOV3 stably expressing GnRH-RI, 3 days
AKT in ES-2 cells = experiment: Response of AKT pathway (Western blot of phosphorylated AKT); assay type: cell-based; conditions: 10 micromoles per liter, 24 hours

In the case of `CC[C@H](C)[C@H](NC(=O)[C@H](CCCNC(=N)N)NC(=O)[C@@H](NC(=O)CNC(=O)CNC(=O)[C@@H]1CCCN1C(=O)[C@H](CCCNC(=N)N)NC(=O)[C@H](CC(C)C)NC(=O)[C@@H](CCCCN)NC(=O)[C@H](Cc1ccc(O)cc1)NC(=O)[C@H](CO)NC(=O)[C@H](Cc1c[nH]c2ccccc12)NC(=O)[C@H](Cc1c[nH]cn1)NC(=O)[C@@H]1CCC(=O)N1)[C@@H](C)O)C(=O)N[C@H](C(=O)N[C@@H](Cc1ccc(O)cc1)C(=O)N[C@@H](CC(=O)O)C(=O)N[C@@H](CCCNC(=N)N)C(=O)N[C@@H](CCCCN)C(=O)N[C@@H](Cc1ccccc1)C(=O)N[C@@H](CC(C)C)C(=O)N[C@@H](CCSC)C(=O)N[C@@H](CCC(=O)O)C(=O)N[C@@H](CS)C(=O)N[C@@H](CCCNC(=N)N)C(=O)N[C@@H](CC(N)=O)C(=O)N[C@@H](CO)C(=O)N1CCC[C@H]1C(=O)N[C@H](C(=O)N[C@H](C(=O)O)[C@@H](C)O)C(C)C)[C@@H](C)CC` [[DLys6]GnRH-4EBP1-WT] ([pGlu]HWSY[dK]LRPGGTRIIYDRKFLMECRNSPVT-OH), the “cellular uptake (internalization) of peptide” value (OVCAR-3 cells [1]) is reported as “taken up”, the “cap-independent translation (F-Luc readout)” value (ES-2-DualLuc cells) is reported as “without significantly inhibiting cap-independent translation” and the “cap-dependent translation (R-Luc read-out)” value (ES-2-DualLuc cells; relative to cells without peptide) is reported as “inhibited cap-dependent translation”. The “cell viability / growth” value (OVCAR-3 cells [2]) was “inhibited”, the cell growth (ES-2 cells) was “inhibited” and the cell growth (kidney cells (COS)) was “failed to inhibit growth”. For the same compound, the cell growth (parental SKOV3 cells) was “resistant”, the cell growth (SKOV3+GnRH-RI cells) was “inhibited growth” and the AKT activation (AKT in ES-2 cells) was “did not induce AKT activation”.
